# Experimental data published in article PMC7819943, “Rice protein-binding microarrays: a tool to detect cis-acting elements near promoter regions in rice”.
# The list shows a part of the results.
# Molecular target: T1, OsSMF1 (Oryza sativa, UniProt Q6ZLB0 1-436)
# T1 sequence: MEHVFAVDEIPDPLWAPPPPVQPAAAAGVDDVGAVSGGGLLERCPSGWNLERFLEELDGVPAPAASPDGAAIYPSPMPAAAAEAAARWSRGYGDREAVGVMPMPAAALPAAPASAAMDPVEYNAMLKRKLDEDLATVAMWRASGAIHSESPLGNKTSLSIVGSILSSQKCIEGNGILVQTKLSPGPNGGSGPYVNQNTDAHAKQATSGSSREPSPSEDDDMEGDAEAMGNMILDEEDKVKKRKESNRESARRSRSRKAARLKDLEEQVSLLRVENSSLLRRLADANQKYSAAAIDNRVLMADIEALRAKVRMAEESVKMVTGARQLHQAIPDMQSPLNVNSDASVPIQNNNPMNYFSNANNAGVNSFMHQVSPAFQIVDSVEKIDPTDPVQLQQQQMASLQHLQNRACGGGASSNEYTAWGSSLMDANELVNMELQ
# Assay: protein-binding microarray (RPBM); PBS, 2% BSA, 51.3 ng/ul salmon testes DNA, 50 uM zinc acetate, 200 nM TF, 25 C, 1 h; high values mean tight binding
# Settings: protein: recombinant; tags: N-terminal polyhistidine and DsRed monomer fusion (pET32a); chain copies: 2; label: CyDye5-dUTP incorporated in the synthesized complementary strand; 3' TTTTT single-stranded linker to array surface; dsDNA, one strand shown
# Outline: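 Using Ni–NTA, transcription factors fused N-terminally to polyhistidine and DsRed were purified after expression in E. coli BL21-CodonPlus. These were incubated at 200 nM with a blocked, double-stranded custom Agilent array for 1 h at 25 °C in a buffer containing 50 µM zinc acetate, and the array was washed. The binding signal is per-feature fluorescence intensity (arbitrary units) on an Axon 4000B scanner.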
row,Sequence,binding signal
1,TAAACGCAGTGGTGATGAGAATGGCACACGCGTACGTGGCCGGAGTCACCTAGTGCAG,7530 fluorescence intensity (a.u.)
2,TTATTAAACACAATATTGCCAAATCATGATGCAATTAGGCCGGAGTCACCTAGTGCAG,4220 fluorescence intensity (a.u.)
3,AATGTCCCCAAGCTTGCCACTCTAGTCATCATCGTGTCGCCGGAGTCACCTAGTGCAG,4280 fluorescence intensity (a.u.)
4,GTCATGTAGATGTAGTGATGTGGACACGCTTGCGATAAAACGGAGTCACCTAGTGCAG,4120 fluorescence intensity (a.u.)
5,CTCCTCGTCCGGATCAGCAGCGGGATTCACAGCAAGTCAGCGGAGTCACCTAGTGCAG,3150 fluorescence intensity (a.u.)
6,AGCTCAGTTTCACAGTTTTCACACATATGTACAATTGACACGGAGTCACCTAGTGCAG,3700 fluorescence intensity (a.u.)
7,CGGCGCTCCCCAACTTCTGCAAGCCACTGCCACGTTTCTGCGGAGTCACCTAGTGCAG,10100 fluorescence intensity (a.u.)
8,TCAACGTGCTCATAGCTGCCACATGTGTAGTGCACAAATGCGGAGTCACCTAGTGCAG,4210 fluorescence intensity (a.u.)
9,CCAGGTCAACACCGTCACATAGGTGCCAAGTCAGCGAAACCGGAGTCACCTAGTGCAG,11900 fluorescence intensity (a.u.)
10,CAGCATCATCGTGATGCCGTCATTGATTTGCATGAAGGCCCGGAGTCACCTAGTGCAG,3420 fluorescence intensity (a.u.)
11,GGCTGCCGAGCGGCGTGGTGGCGTGCGGCCGTGGTGGTGGCGGAGTCACCTAGTGCAG,3550 fluorescence intensity (a.u.)
12,CATGACCGCGGATTTGGGTCTGAGAGGTCATGAGCGAGAGCGGAGTCACCTAGTGCAG,12500 fluorescence intensity (a.u.)
13,CGGTCGACCCACCGTCTGCCACGTCAGCTTGCCGCCCACCCGGAGTCACCTAGTGCAG,22800 fluorescence intensity (a.u.)
14,CTGAGGCTCAATACAATGTGTCCCATATTACGCAGTATACCGGAGTCACCTAGTGCAG,3200 fluorescence intensity (a.u.)
15,GGAGAAACAATATTCGTCATACATTTTGAACCAGATCAAGCGGAGTCACCTAGTGCAG,31700 fluorescence intensity (a.u.)
16,ATTATGCAGGTAATATGTAATTTGATAGCTTAATTAATTACGGAGTCACCTAGTGCAG,33000 fluorescence intensity (a.u.)
17,TCATGAAATTAATAGGATGCCACGTCGACTTGGTTGTTCCCGGAGTCACCTAGTGCAG,25100 fluorescence intensity (a.u.)
18,ACGACGTGCTTGTCTGACACCCACGCAAGGTGCCCCTCCACGGAGTCACCTAGTGCAG,3880 fluorescence intensity (a.u.)
19,ATCTCGCGGCGCGCTCACGTCCACGCCCTCGCATCCACAACGGAGTCACCTAGTGCAG,4310 fluorescence intensity (a.u.)
20,CTCAGATTCTGAACTTAACTACAAATGTGTGATAAGGATACGGAGTCACCTAGTGCAG,13300 fluorescence intensity (a.u.)
21,CGCAACAGCGGTACAGTGTGATACGTGTATGTATACGGTGCGGAGTCACCTAGTGCAG,4340 fluorescence intensity (a.u.)

# Some values from above:
# Value for AATGTCCCCAAGCTTGCCACTCTAGTCATCATCGTGTCGCCGGAGTCACCTAGTGCAG under binding signal: 4280 fluorescence intensity (a.u.)
# Value for AGCTCAGTTTCACAGTTTTCACACATATGTACAATTGACACGGAGTCACCTAGTGCAG under binding signal: 3700 fluorescence intensity (a.u.)
# Value for CAGCATCATCGTGATGCCGTCATTGATTTGCATGAAGGCCCGGAGTCACCTAGTGCAG under binding signal: 3420 fluorescence intensity (a.u.)

# Next part:

row,Sequence,binding signal
1,TAGTTAATCAGTTGGGAACACACACGTCGGCCGTCTCGTCCGGAGTCACCTAGTGCAG,5780 fluorescence intensity (a.u.)
2,TTCTTCTTGGTGGTGGTGGGGCCTGGAAACTATGTGACTTCGGAGTCACCTAGTGCAG,4270 fluorescence intensity (a.u.)
3,ACATGAAATTTACAACTAGGAATAACTATAAATGACAATTCGGAGTCACCTAGTGCAG,3400 fluorescence intensity (a.u.)
4,TGCTTGCTGCTGACCAAGCTCTCTTCTTCTCCTCCTCCTCCGGAGTCACCTAGTGCAG,4480 fluorescence intensity (a.u.)
5,GTTCATCTTGCTGATATGCGTTTATTCAATTTTCTTGGTTCGGAGTCACCTAGTGCAG,3370 fluorescence intensity (a.u.)
6,TGAGAGAGTGGGCCCCACGCGGCAGCGACGCACGCATGATCGGAGTCACCTAGTGCAG,4180 fluorescence intensity (a.u.)
7,CGAGCCTCCAATGGTTGGGTGCAGACGTCACGACCCACCGCGGAGTCACCTAGTGCAG,4980 fluorescence intensity (a.u.)
8,CCTTCTTTGCAGGGAAATTCGTGTGGTAGGTGGCAGGTAGCGGAGTCACCTAGTGCAG,3500 fluorescence intensity (a.u.)
9,CGAGCGACGGCCTCAGCGGCGGCGGCGGCGGCGGCGGTGGCGGAGTCACCTAGTGCAG,3800 fluorescence intensity (a.u.)
10,GAGGCGAGCTGAGGCCAACCACGGCGGCGGCGGCGAACGACGGAGTCACCTAGTGCAG,3700 fluorescence intensity (a.u.)
11,TCTCCGGCGATCCGGAGCAGGGGCGATGGCGGCGCGGGGCCGGAGTCACCTAGTGCAG,3370 fluorescence intensity (a.u.)
12,GGCTGCGGCGCTGTCCCTCCGTCTGCGTGATCCGACAACCCGGAGTCACCTAGTGCAG,3800 fluorescence intensity (a.u.)
13,AAACGCTCGAGGGCCTTCCGGCTAGCTCTATAAGGTGGTGCGGAGTCACCTAGTGCAG,28100 fluorescence intensity (a.u.)
14,CCAAGTGATGCCGTGACATCCCCACAGCCAGCAAACGATCCGGAGTCACCTAGTGCAG,3490 fluorescence intensity (a.u.)
15,ATCTAACATTTGATTCTCGCTTGAATTGACTGACCCAAAACGGAGTCACCTAGTGCAG,3160 fluorescence intensity (a.u.)
16,CGTGGGCTCTCGCTGGACGCTACTCCAGTCAACAGTGGTCCGGAGTCACCTAGTGCAG,20100 fluorescence intensity (a.u.)
17,AGGGAGGAGGGGCGCACAGAGGAGATAGGCCACGTATGGACGGAGTCACCTAGTGCAG,5320 fluorescence intensity (a.u.)
18,TCTGGTATCTCTCTCTGGTAGCGGCGCCGACGTGCGGAGGCGGAGTCACCTAGTGCAG,36400 fluorescence intensity (a.u.)
19,TAGCGTGCATTGTAGTTACACACTTACATGTATCGTTATGCGGAGTCACCTAGTGCAG,3310 fluorescence intensity (a.u.)
20,CGCCGCCTCGTCACCGGCCGCTCCTTCCTCCGCCGCTACCCGGAGTCACCTAGTGCAG,5740 fluorescence intensity (a.u.)
21,CGCGCGCGCCCACGGGCGTCGGCGCGCGGAGGTCGCAGGGCGGAGTCACCTAGTGCAG,3720 fluorescence intensity (a.u.)
